From PubChem BioAssay (EPA / NIEHS)
Values joined by “and” are separate entries in the source; they are usually repeats but may differ in a detail not shown here. Equal entries are not always repeated. Inconclusive means that the source gave no clear call. Such entries were picked first, then a sample of the others. For part of these data: Potencies of inconclusive entries are doubtful fits and often do not repeat. Some compounds were tested as several samples or in several runs, with calls that do not always agree. Active and inactive are the calls of the source. Rule for the calls: active = hit-call score of the fitted dose curve at least 0.9, where 1 is the maximum; inconclusive = response in the unintended direction; inactive = score below 0.9.

Sequences of proteins named here, by UniProt entry; tags and fusion partners are left off. A change or cut given only in a name is not applied to a line headed by its entry.
UniProt P10276, whole entry, looked up: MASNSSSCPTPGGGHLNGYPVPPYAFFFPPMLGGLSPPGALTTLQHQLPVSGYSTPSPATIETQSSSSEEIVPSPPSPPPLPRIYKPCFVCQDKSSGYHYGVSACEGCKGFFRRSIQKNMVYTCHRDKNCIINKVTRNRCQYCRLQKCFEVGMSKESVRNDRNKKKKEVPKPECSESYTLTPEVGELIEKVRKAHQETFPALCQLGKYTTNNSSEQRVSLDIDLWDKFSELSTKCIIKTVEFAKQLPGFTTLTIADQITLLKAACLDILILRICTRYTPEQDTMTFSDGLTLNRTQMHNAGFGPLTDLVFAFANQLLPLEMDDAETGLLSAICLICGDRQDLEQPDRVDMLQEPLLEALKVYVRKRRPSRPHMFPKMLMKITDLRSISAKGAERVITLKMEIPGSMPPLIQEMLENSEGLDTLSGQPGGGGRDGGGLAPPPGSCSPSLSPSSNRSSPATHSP
UniProt Q07869: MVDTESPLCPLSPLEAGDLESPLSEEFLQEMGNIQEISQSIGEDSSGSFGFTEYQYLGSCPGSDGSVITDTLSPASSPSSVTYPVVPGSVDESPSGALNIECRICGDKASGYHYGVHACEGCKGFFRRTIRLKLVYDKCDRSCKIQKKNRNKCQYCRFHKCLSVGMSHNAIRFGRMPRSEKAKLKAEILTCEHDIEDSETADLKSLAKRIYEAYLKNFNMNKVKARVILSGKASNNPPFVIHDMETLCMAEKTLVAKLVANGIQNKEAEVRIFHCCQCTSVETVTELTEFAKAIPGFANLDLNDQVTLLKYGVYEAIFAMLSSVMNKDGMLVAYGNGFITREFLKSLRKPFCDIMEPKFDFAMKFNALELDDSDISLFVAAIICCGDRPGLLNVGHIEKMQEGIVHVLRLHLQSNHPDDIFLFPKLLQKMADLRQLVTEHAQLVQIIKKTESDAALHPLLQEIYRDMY
UniProt P06401: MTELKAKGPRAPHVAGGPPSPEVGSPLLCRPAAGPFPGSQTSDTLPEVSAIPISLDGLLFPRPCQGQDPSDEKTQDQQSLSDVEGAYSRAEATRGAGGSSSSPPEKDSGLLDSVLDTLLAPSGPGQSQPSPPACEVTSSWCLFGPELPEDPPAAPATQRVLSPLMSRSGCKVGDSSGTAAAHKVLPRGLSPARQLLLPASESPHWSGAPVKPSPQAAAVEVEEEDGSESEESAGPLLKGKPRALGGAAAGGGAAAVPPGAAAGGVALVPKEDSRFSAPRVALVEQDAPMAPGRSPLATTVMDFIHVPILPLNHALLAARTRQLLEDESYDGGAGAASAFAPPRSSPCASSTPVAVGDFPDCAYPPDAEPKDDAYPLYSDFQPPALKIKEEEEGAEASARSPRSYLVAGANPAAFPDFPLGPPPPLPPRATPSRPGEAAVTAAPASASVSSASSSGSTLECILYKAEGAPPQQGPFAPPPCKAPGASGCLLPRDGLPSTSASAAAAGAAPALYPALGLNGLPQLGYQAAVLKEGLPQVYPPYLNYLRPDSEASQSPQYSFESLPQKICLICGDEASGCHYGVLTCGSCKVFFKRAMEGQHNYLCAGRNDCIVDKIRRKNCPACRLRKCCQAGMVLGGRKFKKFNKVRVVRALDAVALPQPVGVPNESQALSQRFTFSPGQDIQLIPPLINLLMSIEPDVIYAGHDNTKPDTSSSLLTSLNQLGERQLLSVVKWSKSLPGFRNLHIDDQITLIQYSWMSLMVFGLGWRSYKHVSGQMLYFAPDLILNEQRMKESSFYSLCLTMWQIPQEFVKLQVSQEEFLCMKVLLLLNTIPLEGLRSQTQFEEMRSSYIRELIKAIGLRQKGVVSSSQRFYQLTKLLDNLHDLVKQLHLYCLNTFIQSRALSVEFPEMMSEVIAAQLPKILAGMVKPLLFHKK

Molecular target: Retinoic acid receptor alpha (Homo sapiens) (UniProt P10276)
Assay: NVS_NR_hRAR_Antagonist: NovaScreen (NVS) Nuclear Receptor Binding Assay for human Retinoic Acid Alpha Receptor Antagonism (RAR) (AID 2283358)
Method in brief: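 TR-FRET, cell-free, antagonist format; 2 h incubation after dosing; DMSO = baseline; signal loss fitted; 25 uM duplicate primary, then conc. series.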

SMILES | outcome | AC50
CCCCCCCCOC(=O)c1ccc(O)cc1 | inactive | 
CCCCCCCCCCCCCC[N+](C)(C)C |  | active: 28.3 µM
O=c1c(O)c(-c2ccc(O)cc2O)oc2cc(O)cc(O)c12 |  | active: 6.95 µM
CCCCCCCCCCCCOC(=O)c1cc(O)c(O)c(O)c1 |  | active: 36.9 µM
COC(=O)c1ccccc1C(=O)O | inactive | 
O=C(O)c1cccc(Oc2ccccc2)c1 | inactive | 

Molecular target: human Peroxisome Proliferator-activated Receptor alpha (PPARa), PPARA (gene 5465) (UniProt Q07869)
Assay: NVS_NR_hPPARa: NovaScreen (NVS) Nuclear Receptor Binding Assay for human Peroxisome Proliferator-activated Receptor alpha (PPARa) (AID 2283359);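 note: activity means loss of TR-FRET signal versus DMSO baseline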
Method in brief: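 Chemicals were first screened in duplicate at 25 uM, and active ones were retested across concentration series. Binding was monitored by TR-FRET one hour after dosing, with decreased signal against DMSO counted as activity.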

SMILES | outcome | AC50
CCC(C)N(C)C(=O)c1cc2ccccc2c(-c2ccccc2Cl)n1 (configuration not stated) | inactive | 
CCc1c(C(=O)NN2CCCCC2)nn(-c2ccc(Cl)cc2Cl)c1-c1ccc(Br)cc1 |  | inconclusive: 25 µM
C=C(C)C(=O)OCCC(F)(F)C(F)(F)C(F)(F)C(F)(F)C(F)(F)C(F)(F)F |  | inconclusive: 0.0369 µM
CC[C@H](C)C(=O)O[C@H]1C[C@@H](C)C=C2C=C[C@H](C)[C@H](CC[C@@H]3C[C@@H](O)CC(=O)O3)[C@H]21 |  | inconclusive: 25 µM
CCCOC(=O)c1cc(O)c(O)c(O)c1 |  | inconclusive: 0.113 µM
N[C@@H](Cc1cc(I)c(Oc2ccc(O)c(I)c2)c(I)c1)C(=O)O |  | active: 27.3 µM and active: 20 µM
O=C(O)Cc1cc(I)c(Oc2cc(I)c(O)c(I)c2)c(I)c1 | inactive | 
NC(=NCCCCCCN=C(N)/N=C(\N)Nc1ccc(Cl)cc1)/N=C(\N)Nc1ccc(Cl)cc1 |  | active: 0.178 µM
CCCCCCCCCCO | inactive | 
Oc1ccc(O)cc1 | inactive | 
CC#C[C@]1(O)CC[C@H]2[C@@H]3CCC4=CC(=O)CCC4=C3[C@@H](c3ccc(N(C)C)cc3)C[C@@]21C | inactive | active: 41.9 µM
CC(=O)NC1(c2cccc(F)c2)CCN(CC[C@@]2(c3ccc(Cl)c(Cl)c3)CN(c3ccccc3)C(=O)CO2)CC1 |  | inconclusive: 20.8 µM
O=C(Nc1ccc(Cl)cc1)Nc1ccc(Cl)c(Cl)c1 |  | inconclusive: 0.16 µM
O=C(O)c1ccc2c(c1)nc(C(=O)NC1CCN(C3CC3)CC1)n2Cc1cc(-c2ccc(Cl)s2)on1 | inactive | 
c1ccc2c(c1)-c1cccc3c1c-2cc1ccccc13 |  | inconclusive: 7.7 µM
CCCCCCCCCCCCCC(=O)O |  | inconclusive: 25 µM
CC(CCC(=O)O)(c1ccc(O)cc1)c1ccc(O)cc1 |  | inconclusive: 0.196 µM
C[C@]12CC[C@@H]3c4ccc(O)cc4CC[C@H]3[C@@H]1CC[C@@H]2O |  | inconclusive: 25 µM
O=S(=O)(O)c1cc(S(=O)(=O)O)c2c(N=Nc3ccccc3)c(O)ccc2c1 |  | inconclusive: 15.4 µM
Cc1nccn1-c1ccc(Sc2cccc(C3(C(N)=O)CCOCC3)c2)cc1 | inactive | 

Molecular target: PGR (gene 5241) (UniProt P06401)
Assay: NVS_NR_hPR: NovaScreen (NVS) Nuclear Receptor Binding Assay for human Progestron Receptor (PR) (AID 2283360);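 note: active means loss of bound radioligand signal versus DMSO baseline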
Method in brief: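 T47D-derived receptor preparation, cell-free, with tritiated or iodinated radioligand displacement measured by scintillation 18 h post-dosing. Single 25 uM duplicate screen, then concentration series; signal loss relative to DMSO.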

SMILES | AC50 | outcome
COc1ccccc1C=O | inconclusive: 0.62 µM | 
CCCCCCCCCCCCO |  | inactive
COC(=O)c1ccc(O)cc1 |  | inactive
CCN(Cc1cccnc1)C(=O)c1cccc(Cl)c1[C@]1(C)C(=O)N(Cc2ccc(OC)cc2OC)c2ccc(Cl)cc21 | active: 9.73 µM | 
Cc1ccc2n[nH]nc2c1 | inconclusive: 0.602 µM | 
CCCC(=O)OCCC(C)C | active: 17.2 µM | 
C=Cc1ccc(O)c(OC)c1 | inconclusive: 0.00229 µM | 
CC1(C)NC(=O)N(c2ccc([N+](=O)[O-])c(C(F)(F)F)c2)C1=O | active: 15.7 µM | 
CC1(C)C(C=C(Cl)Cl)C1C(=O)OCc1cccc(Oc2ccccc2)c1 (configuration not stated) |  | inactive
O=c1[nH]sc2ccccc12 | inconclusive: 45.6 µM | 
COC(=O)c1ccccc1C(=O)O | inconclusive: 25 µM | 
Clc1cc(Cl)c2c(c1)N=C1CCCCCN1C2 |  | inactive
CCOC(=O)c1ccc(O)cc1 | inconclusive: 25 µM | 
CCCCCCCCCCCCCCCC[N+](C)(C)CC | inconclusive: 0.0621 µM | 
O=CC1CC1 | inconclusive: 0.0914 µM | 

Reprinted at random: four compounds from above, in no set order.
SMILES | AC50 | outcome
CC1(C)NC(=O)N(c2ccc([N+](=O)[O-])c(C(F)(F)F)c2)C1=O | active: 15.7 µM | 
COC(=O)c1ccc(O)cc1 |  | inactive
C=Cc1ccc(O)c(OC)c1 | inconclusive: 0.00229 µM | 
CC1(C)C(C=C(Cl)Cl)C1C(=O)OCc1cccc(Oc2ccccc2)c1 (configuration not stated) |  | inactive
